# Laboratory results reported in PubChem BioAssay AID504444 (National Center for Advancing Translational Sciences (NCATS), 2011).
# Out of some 360,000 compounds screened, about 7,500 (2.1%) were called active. This list was built around the results that the source calls inconclusive (neither active nor inactive); the mix of calls is not that of the screen. The call rests on the fitted dose curve; in most records, active means well fitted inhibition curve with a large enough effect; inconclusive means small, poorly fitted or top-dose-only effect, or effect the other way; inactive means flat fitted curve, though single readings scatter. Where the call is inconclusive, the potency comes from a doubtful curve fit.
# Experiment: Nrf2 qHTS screen for inhibitors; further: nearly all actives have a fitted effect of over 60% in size
# Details: A549 ARE-Fluc reporter, luciferase luminescence, 18-24 h; activity change, negative = inhibition: at 46 µM (top of the series)
# Procedure, shortened: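 Nrf2 function is reported as luminescence of an ARE-controlled luciferase in A549 cells. Compounds were tested at several concentrations, and a CellTiter-Fluor read on the same wells flagged cytotoxicity.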
# On the % scale 0 is the no-effect control and ±100 the full control effect; potency means the concentration at half of the fitted maximal effect.
SMILES,"activity change, negative = inhibition",Potency
O=C1CCc2cc(S(=O)(=O)Nc3ccc4ncccc4c3)ccc2N1,inactive: 0%,–
O=C(Nc1ccc(N2CCCCC2)cc1)c1ccc2ccccc2n1,–,"inconclusive: 6.51 µM [activator, single point]"
COc1ccc(OC)c(C(=O)CSc2nccc(-c3ccc(Br)cc3)n2)c1,–,"inconclusive: 18.4 µM [falling, single point]"
COc1ccc([C@@H]2CC=C(C(=O)O)[C@H](c3cccc(Cl)c3)N2S(=O)(=O)c2ccccc2C)cc1,–,"inconclusive: 16.4 µM [falling, single point]"
Clc1ccc(CSc2ncccn2)cc1,inactive: 17.6%,–
C#CCOCCOCCOCCNc1nc(N2CCN(C(=O)CCCCCCCCCCNC(=O)[C@H]([C@@H](C)CC)n3cc(CCCCCN)nn3)CC2)nc(N2CCN(C(=O)CCCCCCCCCCNC(=O)[C@@H]([C@H](C)O)n3cc(C)nn3)CC2)n1,–,"inconclusive: 29.1 µM [falling, single point]"
CCOC(=O)Cc1ccc(NC(=O)c2ccc([N+](=O)[O-])cc2)cc1,–,"inconclusive: 18.4 µM [falling, partial curve]"
Cc1ccccc1OCCn1cc(C(=O)c2ccco2)c2ccccc21,–,"inconclusive: 29.1 µM [falling, single point]"
O=C(N/N=C/c1ccccc1C(F)(F)F)c1ccc(O)cc1,–,"inconclusive: 1.84 µM [activator, partial curve]"
Cc1ccccc1/C=N/NC(=O)CSc1nc2ccccc2o1,inactive: 3.28%,–
O=c1c(Br)c(N2CCCCC2)cnn1-c1ccccc1,–,"inconclusive: 2.06 µM [activator, full curve]"
COc1ccccc1C1C(C(=O)c2cc3ccccc3o2)=C(O)C(=O)N1c1cc(C)on1 (stereo not drawn),inactive: -12.4%,–
COc1ccccc1NC(=O)Cc1csc(NC(=S)Nc2ccccc2)n1,–,active: 20.6 µM
Cc1ccc(CCNC(=O)c2cnc3c(-c4ccc(F)cc4)c(C)nn3c2C)cc1,–,"inconclusive: 29.1 µM [activator, single point]"
c1ccc(-n2c(SCC3CCCCO3)nnc2-c2cnccn2)cc1 (stereo not drawn),–,"inconclusive: 29.1 µM [falling, single point]"
O=C(Nc1nc2c(F)cccc2s1)c1ccc([N+](=O)[O-])o1,inactive: 15.8%,–
COc1ccc(-c2cc3nc(-c4ccccc4)cc(N4CCC(O)CC4)n3n2)cc1,–,"inconclusive: 14.6 µM [falling, partial curve, poor fit]"
O=C(CS(=O)CC(=O)N(CC(=O)NC1CCCC1)c1ccccc1F)Nc1ccc(F)cc1 (stereo not drawn),inactive: 6.03%,–
Fc1ccc2[nH]c3c(N4CCSCC4)ncnc3c2c1,–,active: 18.4 µM
CCOC(=O)c1sc(NC(=O)c2cc3ccccc3o2)nc1C,–,"inconclusive: 0.184 µM [activator, full curve, poor fit]"
O=C(Nc1cccc([N+](=O)[O-])c1)c1cc2ccccc2cc1O,–,"inconclusive: 23.1 µM [falling, single point]"
CCn1c(SCC(N)=O)nnc1-c1ccc(S(=O)(=O)N2CCN(C)CC2)cc1,inactive: 11.7%,–
COc1ccc(-c2cc3nc(C)c(CCC(=O)NCCc4ccc(Cl)cc4)c(C)n3n2)c(OC)c1,–,"inconclusive: 29.1 µM [falling, single point]"

# A portion from the list above, for reference:
SMILES,"activity change, negative = inhibition",Potency
COc1ccc([C@@H]2CC=C(C(=O)O)[C@H](c3cccc(Cl)c3)N2S(=O)(=O)c2ccccc2C)cc1,–,"inconclusive: 16.4 µM [falling, single point]"
Clc1ccc(CSc2ncccn2)cc1,inactive: 17.6%,–
C#CCOCCOCCOCCNc1nc(N2CCN(C(=O)CCCCCCCCCCNC(=O)[C@H]([C@@H](C)CC)n3cc(CCCCCN)nn3)CC2)nc(N2CCN(C(=O)CCCCCCCCCCNC(=O)[C@@H]([C@H](C)O)n3cc(C)nn3)CC2)n1,–,"inconclusive: 29.1 µM [falling, single point]"
CCOC(=O)Cc1ccc(NC(=O)c2ccc([N+](=O)[O-])cc2)cc1,–,"inconclusive: 18.4 µM [falling, partial curve]"
Cc1ccccc1OCCn1cc(C(=O)c2ccco2)c2ccccc21,–,"inconclusive: 29.1 µM [falling, single point]"
O=C(N/N=C/c1ccccc1C(F)(F)F)c1ccc(O)cc1,–,"inconclusive: 1.84 µM [activator, partial curve]"
Cc1ccccc1/C=N/NC(=O)CSc1nc2ccccc2o1,inactive: 3.28%,–
O=c1c(Br)c(N2CCCCC2)cnn1-c1ccccc1,–,"inconclusive: 2.06 µM [activator, full curve]"
COc1ccccc1C1C(C(=O)c2cc3ccccc3o2)=C(O)C(=O)N1c1cc(C)on1 (stereo not drawn),inactive: -12.4%,–
COc1ccccc1NC(=O)Cc1csc(NC(=S)Nc2ccccc2)n1,–,active: 20.6 µM
Cc1ccc(CCNC(=O)c2cnc3c(-c4ccc(F)cc4)c(C)nn3c2C)cc1,–,"inconclusive: 29.1 µM [activator, single point]"
c1ccc(-n2c(SCC3CCCCO3)nnc2-c2cnccn2)cc1 (stereo not drawn),–,"inconclusive: 29.1 µM [falling, single point]"
O=C(Nc1nc2c(F)cccc2s1)c1ccc([N+](=O)[O-])o1,inactive: 15.8%,–
COc1ccc(-c2cc3nc(-c4ccccc4)cc(N4CCC(O)CC4)n3n2)cc1,–,"inconclusive: 14.6 µM [falling, partial curve, poor fit]"
O=C(CS(=O)CC(=O)N(CC(=O)NC1CCCC1)c1ccccc1F)Nc1ccc(F)cc1 (stereo not drawn),inactive: 6.03%,–

# Remaining list, next part:

SMILES,"activity change, negative = inhibition",Potency
O=C1N/C(=N\N=C\c2cccnc2)SC1Cc1ccc(SC(F)F)cc1 (stereo not drawn),–,active: 16.4 µM
O=C(O)CCn1cc(/C=C2/NC(=S)N(c3ccccc3)C2=O)c(-c2ccccc2)n1,inactive: -2.64%,–
COc1ccc(-n2nc(C(=O)NCC(=O)N3CCN(c4ccccc4F)CC3)c3ccccc3c2=O)cc1,–,"inconclusive: 2.31 µM [activator, full curve]"
Cc1ccc(-c2nn(CCC#N)cc2C=C(C#N)C#N)cc1,–,"inconclusive: 6.51 µM [activator, single point]"
CCOC(=O)c1sc2nc(N3CCOCC3)c3c(c2c1N)CC(C)(C)N(C)C3,inactive: 3.45%,–
CC(C)Cn1c(N)c(C(=O)COC(=O)c2ccc3c(c2)OCCO3)c(=O)n(C)c1=O,–,active: 10.3 µM
COc1ccc(Oc2cc(NN3CCCCC3)c([N+](=O)[O-])cc2[N+](=O)[O-])cc1OC,–,"inconclusive: 18.4 µM [falling, single point]"
O=C(O)c1cccc(CSc2ncccn2)c1,–,"inconclusive: 2.06 µM [falling, single point]"
Cc1cccc2c1-c1sc(C(=O)NCCCN3CCN(c4ccccc4F)CC3)cc1CO2,–,"inconclusive: 20.6 µM [falling, single point]"
Cc1ccc(S(=O)(=O)c2nnn3c2nc(NCCCN2CCCC2=O)c2ccccc23)cc1C,–,"inconclusive: 20.6 µM [falling, single point]"
CCOc1ccc(CN2CCN(Cc3ccc4c(c3)c3ccccc3n4CC)CC2)cc1,–,"inconclusive: 29.1 µM [falling, single point]"
COc1ccc(-c2csc3nc[nH]c(=O)c23)cc1,–,"inconclusive: 11.6 µM [falling, partial curve]"
COc1ccc(S(=O)(=O)N2CCOC2CNC(=O)C(=O)NCCc2ccccc2OC)cc1 (stereo not drawn),–,"inconclusive: 7.31 µM [falling, partial curve, poor fit]"
CCN1C(=O)C(=O)N(CC(=O)Nc2cccc(C(F)(F)F)c2)C1=O,–,"inconclusive: 4.11 µM [activator, partial curve, poor fit]"
Cn1c(=NC(=O)C2CCCCC2)sc2cc([N+](=O)[O-])ccc21,–,"inconclusive: 14.6 µM [activator, partial curve]"
Cc1cc(NC(=O)CC(F)(F)F)n(-c2ccccc2)n1,–,"inconclusive: 11.6 µM [activator, partial curve]"
CCN(Cc1nc2cc(Cl)ccc2c(=O)[nH]1)C(=O)c1cccc(OCc2c(C)noc2C)c1,–,"inconclusive: 16.4 µM [falling, single point]"
COC(=O)c1cc(NC(=O)CN(c2ccc(OC)cc2)S(=O)(=O)c2ccc(F)cc2)ccc1Cl,–,"inconclusive: 29.1 µM [falling, single point]"
CCN(CC)S(=O)(=O)c1ccc(N2CCOCC2)c(NC(=O)c2ccccc2)c1,inactive: -6.26%,–
COc1cc(/C=c2\sc3nc(=O)c(-c4ccccc4)nn3c2=O)ccc1OCCC(C)C,–,"inconclusive: 0.058 µM [activator, full curve, poor fit]"
Cc1cc(-c2nnc(-c3ccccc3)c(-c3ccccc3)n2)c(C)o1,–,"inconclusive: 9.2 µM [falling, partial curve]"
O=C(NCc1ccccc1)C1CCCN1C(=O)Nc1ccccc1[N+](=O)[O-] (stereo not drawn),–,"inconclusive: 7.31 µM [activator, partial curve, poor fit]"
CCCN(CCC)c1nc(-c2ccccn2)nc2ccccc12,–,active: 18.4 µM

SMILES,"activity change, negative = inhibition",Potency
O=C(NC1CCCCC1)N1CCN(c2ccc([N+](=O)[O-])cc2)CC1,–,active: 23.1 µM
O=C(Cn1cc(S(=O)(=O)Cc2cccc([N+](=O)[O-])c2)c2ccccc21)N1CCOCC1,–,"inconclusive: 20.6 µM [falling, single point]"
O=C(Nc1ccc(Oc2cccnc2)cc1)C1CCN(Cc2ccc(F)cc2)CC1,–,"inconclusive: 20.6 µM [falling, partial curve, poor fit]"
Cc1ccc(C)c(NS(=O)(=O)c2ccc3c(c2)NC(=O)CCS3)c1,–,"inconclusive: 29.1 µM [falling, single point]"
CC1CC(C)CN(C(=O)c2cccc(S(=O)(=O)N3c4ccccc4CC3C)c2)C1 (stereo not drawn),–,"inconclusive: 20.6 µM [falling, single point]"
Nc1cc(-c2ccncc2)c[nH]c1=O,inactive: -8.7%,–
O=C1C2C3C=CC(C3)C2C(=O)N1c1ccncc1 (stereo not drawn),inactive: -16.1%,–
CCN1/C(=C/C(=S)Nc2ccccc2)Sc2ccccc21,–,active: 6.51 µM
COc1ccc(-n2c(-c3ccccc3)c[n+]3c2CCC3)cc1,–,active: 9.2 µM
COc1ccc(-c2noc(CCC(=O)O)n2)cc1,inactive: -16.7%,–
COc1ccc(NC(=O)Cc2c(C(=O)O)[nH]c3ccccc23)cc1OC,inactive: 21.7% [at 9.27 µM],–
CC(C)OCCCNC(=O)c1ccccc1NC(=O)C1=CSCCO1,inactive: 0.164%,–
CN(CC(=O)Nc1ccc(F)c(F)c1F)C(=O)/C=C/c1ccc(Cl)cc1,inactive: -15.9%,–
O=S(=O)(c1ccc(SCc2cccc(Cl)c2)nc1)N1CCCC1,–,"inconclusive: 13 µM [falling, partial curve, poor fit]"
O=C(Nc1cccnc1)c1ccc(Cl)c(S(=O)(=O)N2CCc3ccccc32)c1,–,"inconclusive: 29.1 µM [falling, partial curve, poor fit]"
CCN1C(=O)C(C)S/C1=N\S(=O)(=O)c1ccc(Cl)s1 (stereo not drawn),–,"inconclusive: 29.1 µM [activator, single point]"
CCOC(=O)CC1CCCCN1C(=O)c1ccc2oc(CCc3ccccc3)nc2c1 (stereo not drawn),–,"inconclusive: 29.1 µM [falling, single point]"
COc1cc(C2c3c(oc4ccc(F)cc4c3=O)C(=O)N2Cc2ccc3c(c2)OCO3)ccc1O (stereo not drawn),inactive: 0.501%,–
O=c1c(C=NCc2ccccc2)c(NCc2ccccc2)nc2ccccn12,–,"inconclusive: 20.6 µM [falling, partial curve, poor fit]"
Cc1cc(S(=O)(=O)N(Cc2ccc(C(C)C)cc2)CC2CCCO2)ccc1-n1cnnn1 (stereo not drawn),–,active: 23.1 µM
COc1ccc(C(=O)Nc2ccc3nc4c(c(Nc5ccccc5OC)c3c2)CCCC4)c(OC)c1,inactive: -13.3% [at 9.27 µM],–
Cc1ccc(S(=O)(=O)NC(CC(C)C)C(=O)N2CCN(C/C=C/c3ccccc3)CC2)cc1 (stereo not drawn),–,"inconclusive: 16.4 µM [falling, single point]"
